Laboratory results from patent US20070271623A1.
These are yes or no findings as the source states them, for the method shown. Some results given as binding are weak or reduced against the parent protein; the word gives no strength. For some of these results: Sequences can lack the tags named with a protein. Values belong to the binder of their own block, whether it stands above or below them.

Amino acid sequences for entries named in this document (tags omitted). A change or cut given only in a name is not applied to a line headed by its entry. Residues count along the entry.
UniProt Q8S8P5, residues 332-519: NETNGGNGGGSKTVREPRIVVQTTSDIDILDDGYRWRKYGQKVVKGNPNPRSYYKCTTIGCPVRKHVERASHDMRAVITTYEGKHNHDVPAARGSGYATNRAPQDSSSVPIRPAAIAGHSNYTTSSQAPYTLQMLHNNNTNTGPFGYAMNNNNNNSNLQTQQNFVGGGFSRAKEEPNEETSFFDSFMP
UniProt P04386: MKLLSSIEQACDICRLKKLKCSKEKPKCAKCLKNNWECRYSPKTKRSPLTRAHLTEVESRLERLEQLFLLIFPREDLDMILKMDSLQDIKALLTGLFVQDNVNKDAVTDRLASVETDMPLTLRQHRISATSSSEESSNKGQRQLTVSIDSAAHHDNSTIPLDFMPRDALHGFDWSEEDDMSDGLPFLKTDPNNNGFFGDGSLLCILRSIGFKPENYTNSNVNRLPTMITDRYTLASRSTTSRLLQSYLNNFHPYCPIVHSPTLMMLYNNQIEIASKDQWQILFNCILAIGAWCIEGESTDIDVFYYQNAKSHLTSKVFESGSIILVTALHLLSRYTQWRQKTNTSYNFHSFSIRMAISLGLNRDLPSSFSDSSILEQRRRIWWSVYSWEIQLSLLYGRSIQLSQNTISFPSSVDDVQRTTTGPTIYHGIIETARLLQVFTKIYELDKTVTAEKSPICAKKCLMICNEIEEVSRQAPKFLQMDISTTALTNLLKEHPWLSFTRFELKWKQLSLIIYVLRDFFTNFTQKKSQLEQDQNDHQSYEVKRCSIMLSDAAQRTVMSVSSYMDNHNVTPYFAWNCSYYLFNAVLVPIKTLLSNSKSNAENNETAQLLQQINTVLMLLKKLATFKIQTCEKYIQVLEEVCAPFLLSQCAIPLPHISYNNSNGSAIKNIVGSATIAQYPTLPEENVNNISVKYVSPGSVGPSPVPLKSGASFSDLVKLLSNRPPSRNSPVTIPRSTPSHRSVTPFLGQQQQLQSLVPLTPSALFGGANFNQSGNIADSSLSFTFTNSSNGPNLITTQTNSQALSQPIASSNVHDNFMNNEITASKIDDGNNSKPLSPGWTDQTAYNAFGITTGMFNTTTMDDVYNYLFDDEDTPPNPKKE
UniProt Q39024: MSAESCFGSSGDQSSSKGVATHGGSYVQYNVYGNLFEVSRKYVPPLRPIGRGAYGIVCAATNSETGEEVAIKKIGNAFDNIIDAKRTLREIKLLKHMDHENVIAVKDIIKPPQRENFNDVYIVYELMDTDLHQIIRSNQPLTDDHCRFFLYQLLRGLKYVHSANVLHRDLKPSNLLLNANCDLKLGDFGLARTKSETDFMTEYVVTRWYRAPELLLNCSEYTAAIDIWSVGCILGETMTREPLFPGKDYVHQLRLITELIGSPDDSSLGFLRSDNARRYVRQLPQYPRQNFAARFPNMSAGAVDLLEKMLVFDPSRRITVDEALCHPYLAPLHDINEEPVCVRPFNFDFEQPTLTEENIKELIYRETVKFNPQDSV

Key:
[1] = biological target: WRKY33 as prey (AD fusion) (Arabidopsis thaliana) (UniProt Q8S8P5); test: yeast two-hybrid assay
[2] = biological target: MPK4 as bait (BD fusion) (Arabidopsis thaliana) (UniProt P04386+Q39024); test: yeast two-hybrid library screen

B1: C1-MKS1 truncation (amino acids 1-196), two-hybrid construct (protein, not shown: large carriers)
chain: MDPSEYFAGGNPSDQQNQKRQLQICGPRPSPLSVHKDSHKIKKPPKHPAPPPNRDQPPPYIPREPVVIYAVSPKVVHATASEFMNVVQRLTGISSGVFLESGGGGDVSPAARLASTENASPRGGKEPAARDETVEINTAMEEAAEFGGYAPGILSPSPALLPTASTGIFSPMYHQGGMFSPAIPLGLFSPAGFMSP
binding [1]: binds

B2: N1-MKS1, N-terminal truncated form (amino acids 55-222), two-hybrid construct (protein, not shown: large carriers)
chain: DQPPPYIPREPVVIYAVSPKVVHATASEFMNVVQRLTGISSGVFLESGGGGDVSPAARLASTENASPRGGKEPAARDETVEINTAMEEAAEFGGYAPGILSPSPALLPTASTGIFSPMYHQGGMFSPAIPLGLFSPAGFMSPFRSPGFTSLVASPTFADFFSHIWDQD
binding [1]: binds

Further lines, results first:

binding [1]: binds
B3: C2-MKS1 truncation (amino acids 1-123), two-hybrid construct (protein, not shown: large carriers)
chain: MDPSEYFAGGNPSDQQNQKRQLQICGPRPSPLSVHKDSHKIKKPPKHPAPPPNRDQPPPYIPREPVVIYAVSPKVVHATASEFMNVVQRLTGISSGVFLESGGGGDVSPAARLASTENASPRG

binding [2]: binds
B4: MKS1 as interacting prey (AD fusion) (protein, not shown: large carriers)
chain: MDPSEYFAGGNPSDQQNQKRQLQICGPRPSPLSVHKDSHKIKKPPKHPAPPPNRDQPPPYIPREPVVIYAVSPKVVHATASEFMNVVQRLTGISSGVFLESGGGGDVSPAARLASTENASPRGGKEPAARDETVEINTAMEEAAEFGGYAPGILSPSPALLPTASTGIFSPMYHQGGMFSPAIPLGLFSPAGFMSPFRSPGFTSLVASPTFADFFSHIWDQD
